Reference: the M2OR odorant receptor database
The list shows a part of the results. Calls are pooled over several reports, among them a noisy single-well screen.

test system: T1, OR8K3; details: stereoisomer not certain
T1 sequence (whole entry): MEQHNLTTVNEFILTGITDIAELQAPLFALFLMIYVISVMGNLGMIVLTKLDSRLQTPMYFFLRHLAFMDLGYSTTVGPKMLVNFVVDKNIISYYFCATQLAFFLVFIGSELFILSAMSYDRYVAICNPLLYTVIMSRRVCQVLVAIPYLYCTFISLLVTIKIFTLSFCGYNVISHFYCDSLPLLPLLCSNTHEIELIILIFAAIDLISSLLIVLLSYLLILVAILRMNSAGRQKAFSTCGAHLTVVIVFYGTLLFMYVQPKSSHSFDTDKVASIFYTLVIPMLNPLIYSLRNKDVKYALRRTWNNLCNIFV
Method in brief: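 Whether a receptor–molecule pair is responsive (active) rests on the original authors' judgment that its measured signal was statistically different from baseline. Pairs without that judgment are non-responsive (inactive). Sources used varied assay methods, commonly transient luciferase assays in mammalian cell lines.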
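Further: active if original authors judged signal statistically different from baseline.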

Odorant receptor agonist call, inactive:
CC12C=CCC1C1CCC3=CC(=O)CCC3(C)C1CC2 (stereo not given)
COc1ccccc1O
CCCCCCCC=CC=O
C=CCSCC=C
CC(=O)c1ccccc1
CCC=CCCO
CC(C)=CCCC(C)=CC=O
COC(=O)c1ccccc1
CC1=NC(C)SC1C (stereo not given)
O=C1CCCCCCCCCCCC(=O)OCCO1
c1cnccn1
CC12CCC(CC1)C(C)(C)O2
COC(=O)c1ccccc1O
CC=Cc1ccc(O)c(OC)c1
C=CCc1ccc(OC(C)=O)c(OC)c1
CC1COCc2cc3c(cc21)C(C)(C)C(C)C3(C)C (stereo not given)
CCCC(=O)O
CCCCCC(C)=O
O=C1CCCCCCCCCCCCCCO1
C=CC(C)(O)CCC=C(C)C (stereo not given)
CCCCO
COc1cc(C=O)ccc1O
CCCCCCOC(=O)CCC
CCCCCOC(C)=O
C=CCc1ccc(OC)c(OC)c1

Retrieved by structure from above (two):
Odorant receptor agonist call, inactive:
CCCCO
c1cnccn1
